{"source": "PubChem BioAssay AID504774, Drosophila RNAi Screening Center | 2011", "screen": "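Genes required for cells to withstand methyl methanesulphonate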 (primary screen)", "cells": "Drosophila Kc167 cells", "reagent": "long dsRNA against Drosophila genes, about 0.25 µg dsRNA per well", "timing": "about 6 days: 3 days knock-down, then 3 days with or without MMS", "conditions": "methyl methanesulphonate 0.004% (w/v) for 3 days after knock-down", "detection": "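ATP-dependent luminescence as a measure of live cells in MMS-exposed wells, quantile normalised within each plate, with replicate values also given as a mean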", "direction": "mean viability with MMS and viability with MMS: higher = more surviving cells after MMS", "note": "In all, the deposit lists about 23,000 reagents; this is a random part of those that have a named target and a result. 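Values are quantile-normalised luminescence on an arbitrary scale; higher means more cells surviving MMS.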 Reagents against one gene are numbered here. Further read-outs or replicates are left out here."}
The first 2 records, to show the layout:
{"Target gene": "aurA (aurora A)", "reagent no.": 1, "mean viability with MMS": 3.39e6, "viability with MMS, replicate 1": 3.85e6}
{"Target gene": "CG33307", "reagent no.": 1, "mean viability with MMS": 3.37e6, "viability with MMS, replicate 1": 3.58e6}

Main list, from the first entry:
{"Target gene": "aurA (aurora A)", "reagent no.": 1, "mean viability with MMS": 3.39e6, "viability with MMS, replicate 1": 3.85e6}
{"Target gene": "CG33307", "reagent no.": 1, "mean viability with MMS": 3.37e6, "viability with MMS, replicate 1": 3.58e6}
{"Target gene": "CG30275", "reagent no.": 1, "mean viability with MMS": 3.80e6, "viability with MMS, replicate 1": 4.15e6}
{"Target gene": "ppk21 (pickpocket 21)", "reagent no.": 1, "mean viability with MMS": 3.63e6, "viability with MMS, replicate 1": 4.14e6}
{"Target gene": "CG15876", "reagent no.": 1, "mean viability with MMS": 3.61e6, "viability with MMS, replicate 1": 4.11e6}
{"Target gene": "MESR3 (Misexpression suppressor of ras 3)", "reagent no.": 1, "mean viability with MMS": 3.50e6, "viability with MMS, replicate 1": 3.98e6}
{"Target gene": "CG2540", "reagent no.": 1, "mean viability with MMS": 3.50e6, "viability with MMS, replicate 1": 3.85e6}
{"Target gene": "CG15140", "reagent no.": 1, "mean viability with MMS": 3.66e6, "viability with MMS, replicate 1": 4.05e6}
{"Target gene": "CG31198", "reagent no.": 1, "mean viability with MMS": 3.62e6, "viability with MMS, replicate 1": 4.11e6}
{"Target gene": "CG12310", "reagent no.": 1, "mean viability with MMS": 3.53e6, "viability with MMS, replicate 1": 4.06e6}
{"Target gene": "CG3251", "reagent no.": 1, "mean viability with MMS": 3.42e6, "viability with MMS, replicate 1": 3.78e6}
{"Target gene": "CG5550", "reagent no.": 1, "mean viability with MMS": 3.43e6, "viability with MMS, replicate 1": 3.87e6}
{"Target gene": "CG3632", "reagent no.": 1, "mean viability with MMS": 3.62e6, "viability with MMS, replicate 1": 4.00e6}
{"Target gene": "CG3632", "reagent no.": 2, "mean viability with MMS": 3.61e6, "viability with MMS, replicate 1": 4.30e6}
